# Results taken from the supplement of paper PMC12889115.
# The list shows a part of the results. Values are raw readings; no control value is given beside them.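 In the initial screen, polymyxin B was used at a concentration that permeabilizes Salmonella's outer membrane but not its inner membrane. Maximum growth was set by DMSO wells with or without polymyxin B. Since plates varied, data were ranked per plate, and compounds giving the lowest OD600 advanced as hits.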
# System: Salmonella enterica serovar Typhimurium SL1344
# Assay: bacterial growth OD600 after 18 h with compound and polymyxin B; higher = more bacterial growth (less inhibition)
# Conditions: 50 µM, Mueller-Hinton broth
SMILES,bacterial growth OD600 (polymyxin B 0.75 µg/mL),bacterial growth OD600 (polymyxin B 1 µg/mL)
COc1cccc(-c2ccc(NC(=O)C3CCCN3Cc3cccnc3)cc2)c1 (stereo not given),0.524,
COc1ccc(CC2(CCC(=O)NCc3nc(-c4ccccc4)no3)CCC(=O)N2)c(F)c1 (stereo not given),0.683,
CSc1ccccc1C(=O)N1CCCC(CCC(=O)NC2CC2)C1 (stereo not given),,1.05
O=C1N(Cc2cccc(F)c2F)CCCC1(O)CN1CCOCC1 (stereo not given),,0.892
COc1cccc(CN2C[C@@H]3C[C@@H](c4cccs4)N4CCC[C@@]34C2=O)c1,0.79,
O=C(CCc1ccncc1)N1CCCC(CCc2ccc(F)c(F)c2)C1 (stereo not given),0.003,
COc1cc(C(=O)NCCCC2CCCC2)ccc1OC1CCN(C(C)=O)CC1,,1.04
CCOC(=O)C1(CC2CC2)CCN(Cc2cnc(-c3ccc(OC)cc3)nc2)CC1,0.696,
CCOC(=O)c1n[nH]cc1CN1CCC(Cc2cccc(OC)c2)(C(=O)OCC)CC1,0.769,
O=C(NCc1cccc2[nH]ccc12)C1CCCN(C2CCN(C(=O)C3CC3)CC2)C1 (stereo not given),,0.884
O=C(Nc1cnn(-c2ccc(C(=O)N3CCCC(c4ccccc4)C3)cc2)c1)c1cccnc1 (stereo not given),0.021,
COc1ccc(C(=O)NC(C)c2ccccc2)cc1OC1CCN(C(C)=O)CC1 (stereo not given),,1
CCc1ccc(CN2CCC(Oc3cc(OC)ccc3C(=O)N3CCCC3)CC2)cc1,,1.24
O=C(NCCc1cnccn1)c1coc(COc2ccc(F)cc2Cl)n1,,0.938
CCOC(=O)C1(Cc2ccc(F)cc2F)CCCN(C(=O)c2ccc(OC)c(F)c2)C1 (stereo not given),,0.021
O=C(Nc1cccc(-c2ccc(F)cc2)c1)C1CCCN(C(=O)c2cn[nH]c2)C1 (stereo not given),,0.952
O=C(CC1CC1)NC1CC(=O)N(CCc2cccc(Cl)c2)C1 (stereo not given),,0.929
COc1ccc(CN2C(=O)O[C@@H]3CN(Cc4ccccc4F)C[C@@H]32)cc1OC,,1.16
COc1cc(CC2(CCC(=O)NCc3c(F)ccc(C)c3F)CCC(=O)N2)ccc1F (stereo not given),0.832,
COCC1CCN(C(=O)c2cc(COc3c(C)cccc3C)on2)C1 (stereo not given),,0.987

# No new results follow: 2 of the compounds above.
SMILES,bacterial growth OD600 (polymyxin B 0.75 µg/mL),bacterial growth OD600 (polymyxin B 1 µg/mL)
COc1cccc(-c2ccc(NC(=O)C3CCCN3Cc3cccnc3)cc2)c1 (stereo not given),0.524,
COc1ccc(CC2(CCC(=O)NCc3nc(-c4ccccc4)no3)CCC(=O)N2)c(F)c1 (stereo not given),0.683,
